Data published in paper PMC7409020 (Cancers, 2020).
For some of these results: End groups of sequences in plain letters are not given here. Some peptides are written in HELM: one residue between dots, names in brackets for other building blocks, links after the first $.

Assay: peptide synthesis
Settings: whole synthesis

Substance | final purity (method not given) [%]
ACGLSALGVA | 98
PEPTIDE1{A.C.G.L.A.G.L.G.V.A.[am]}$$$$V2.0 | 96
PEPTIDE1{A.C.G.L.S.G.A.G.V.A.[am]}$$$$V2.0 | 99
PEPTIDE1{A.C.G.L.S.G.L.G.V.A.[am]}$$$$V2.0 | 97

Assay: general procedure: Fmoc solid-phase peptide synthesis; Fmoc-Rink-MBHA resin (0.56 mmol/g); DIC/Oxyma
Settings: whole synthesis

Substance | final purity (method not given) [%]
PEPTIDE1{A.A.G.L.S.G.L.G.V.A.[am]}$$$$V2.0 | >99
PEPTIDE1{A.C.A.L.S.G.L.G.V.A.[am]}$$$$V2.0 | 94
PEPTIDE1{A.C.G.A.S.G.L.G.V.A.[am]}$$$$V2.0 | >99
